Assay [1] has as its target T1, Myc-B55α wild type (UniProt P63151).
T1 sequence: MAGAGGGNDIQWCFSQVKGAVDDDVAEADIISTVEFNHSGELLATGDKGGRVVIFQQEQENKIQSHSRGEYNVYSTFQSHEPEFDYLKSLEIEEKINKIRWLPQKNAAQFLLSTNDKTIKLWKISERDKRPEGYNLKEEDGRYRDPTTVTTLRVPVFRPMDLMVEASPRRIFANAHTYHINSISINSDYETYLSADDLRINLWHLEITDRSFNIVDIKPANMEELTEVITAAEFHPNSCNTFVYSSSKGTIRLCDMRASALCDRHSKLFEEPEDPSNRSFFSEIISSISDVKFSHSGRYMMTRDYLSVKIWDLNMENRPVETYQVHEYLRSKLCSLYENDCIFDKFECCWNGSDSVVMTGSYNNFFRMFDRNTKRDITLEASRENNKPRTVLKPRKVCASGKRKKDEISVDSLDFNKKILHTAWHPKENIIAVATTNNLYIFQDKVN
Description: co-IP; HEK293T cotransfected with FLAG-FAM122A and Myc-B55α WT and mutants; anti-Myc and anti-FLAG beads 3 h or overnight at 4 °C, washes with DIP lysis buffer, western blot.

For assay [2], the target named is T2, Myc-B55α L225A, P63151.
T2 chain: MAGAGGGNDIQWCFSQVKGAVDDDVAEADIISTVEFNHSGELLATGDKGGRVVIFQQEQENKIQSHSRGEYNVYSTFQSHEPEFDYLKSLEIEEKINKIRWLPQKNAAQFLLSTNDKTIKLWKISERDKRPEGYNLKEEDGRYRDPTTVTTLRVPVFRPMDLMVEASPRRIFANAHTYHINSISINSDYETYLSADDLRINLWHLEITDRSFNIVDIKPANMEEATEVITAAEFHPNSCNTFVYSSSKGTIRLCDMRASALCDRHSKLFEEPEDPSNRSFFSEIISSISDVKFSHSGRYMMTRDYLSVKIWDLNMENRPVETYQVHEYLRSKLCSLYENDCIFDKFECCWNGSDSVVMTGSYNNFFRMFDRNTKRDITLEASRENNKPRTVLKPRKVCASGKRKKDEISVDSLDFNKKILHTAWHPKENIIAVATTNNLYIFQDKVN
Described as above. Conditions: remark: other sources report otherwise.

The target in assay [3] is tagged FAM122A in HEK293 and T98G cells (UniProt Q9DB52). As to the kind of experiment: co-IP; B55α bound to tagged FAM122A in HEK293 and T98G cells: exponentially growing, thymidine, RO3306, nocodazole, release from quiescence or from nocodazole.
Assay [4] deals with GFP-FAM122A (UniProt Q9DB52). Description: co-IP; GFP-FAM122A transfected cells treated with HU and/or CHK1 inhibitor (replication stress).
Assay [5] addresses T1, Myc-B55α wild type. As to the kind of experiment: co-IP; competition: HEK293T cotransfected with invariable Myc-B55α and FLAG-p107 and increasing FLAG-FAM122A; anti-Myc IP, western blot. (In general: A western blot detects proteins with antibodies after separation by electrophoresis.)

Results are given in words; binding and its absence hold for the method and conditions named. Binding seen in cells or lysates may run through a third protein. Some results given as binding are weak or reduced against the parent protein; the word gives no strength. For some of these results: Tags and fused reporters may be left off the sequences shown.

B1: murine FLAG-FAM122A S73A (protein, UniProt Q9DB52 1-284)
chain: MAQEKMELDLELPAGASPAEGGGPGGGGLRRSNSAPLIHGLSDSSPVFQAEAPSARRNSTTFPSRHGLLLPAAPVRMHSSRLHQIKQEEGMDLINRETVHEREVQTAMQISHSWEESFSLSDNDVEKSASPKRIDFIPVSPAPSPTRGIGKQCFSPSLQSFVSSNGLPPSPIPSPTTRFTTRRSQSPINCIRPSVLGPLKRKCEMETDYQPKRFFQGITNMLSSDVAQLSDPGVCVSSDTLDGNSSSAGSSCNSPAKVSTTTDSPVSPAQAASPFIPVDELSSK
Consider B1, for which, in assay [1], the binding entry is listed as “binds”.

B2: murine FLAG-FAM122A R81A L82A (protein, UniProt Q9DB52 1-284)
chain: MAQEKMELDLELPAGASPAEGGGPGGGGLRRSNSAPLIHGLSDSSPVFQAEAPSARRNSTTFPSRHGLLLPASPVRMHSSAAHQIKQEEGMDLINRETVHEREVQTAMQISHSWEESFSLSDNDVEKSASPKRIDFIPVSPAPSPTRGIGKQCFSPSLQSFVSSNGLPPSPIPSPTTRFTTRRSQSPINCIRPSVLGPLKRKCEMETDYQPKRFFQGITNMLSSDVAQLSDPGVCVSSDTLDGNSSSAGSSCNSPAKVSTTTDSPVSPAQAASPFIPVDELSSK
Consider B2, for which the binding result in assay [1] is “no binding”.

B3: murine FLAG-FAM122A wild type, Q9DB52 1-284 (protein)
chain: MAQEKMELDLELPAGASPAEGGGPGGGGLRRSNSAPLIHGLSDSSPVFQAEAPSARRNSTTFPSRHGLLLPASPVRMHSSRLHQIKQEEGMDLINRETVHEREVQTAMQISHSWEESFSLSDNDVEKSASPKRIDFIPVSPAPSPTRGIGKQCFSPSLQSFVSSNGLPPSPIPSPTTRFTTRRSQSPINCIRPSVLGPLKRKCEMETDYQPKRFFQGITNMLSSDVAQLSDPGVCVSSDTLDGNSSSAGSSCNSPAKVSTTTDSPVSPAQAASPFIPVDELSSK
Take B3: the binding result in assay [2] was “no binding”.

B4: murine FLAG-FAM122A I85A K86A (protein, UniProt Q9DB52 1-284)
chain: MAQEKMELDLELPAGASPAEGGGPGGGGLRRSNSAPLIHGLSDSSPVFQAEAPSARRNSTTFPSRHGLLLPASPVRMHSSRLHQAAQEEGMDLINRETVHEREVQTAMQISHSWEESFSLSDNDVEKSASPKRIDFIPVSPAPSPTRGIGKQCFSPSLQSFVSSNGLPPSPIPSPTTRFTTRRSQSPINCIRPSVLGPLKRKCEMETDYQPKRFFQGITNMLSSDVAQLSDPGVCVSSDTLDGNSSSAGSSCNSPAKVSTTTDSPVSPAQAASPFIPVDELSSK
On to B4, for which the binding entry in assay [1] was “no binding”.

B5: B55α (source not stated; Supplementary Figs. 4C and 8B-F) (protein, UniProt P63151 1-447)
chain: MAGAGGGNDIQWCFSQVKGAVDDDVAEADIISTVEFNHSGELLATGDKGGRVVIFQQEQENKIQSHSRGEYNVYSTFQSHEPEFDYLKSLEIEEKINKIRWLPQKNAAQFLLSTNDKTIKLWKISERDKRPEGYNLKEEDGRYRDPTTVTTLRVPVFRPMDLMVEASPRRIFANAHTYHINSISINSDYETYLSADDLRINLWHLEITDRSFNIVDIKPANMEELTEVITAAEFHPNSCNTFVYSSSKGTIRLCDMRASALCDRHSKLFEEPEDPSNRSFFSEIISSISDVKFSHSGRYMMTRDYLSVKIWDLNMENRPVETYQVHEYLRSKLCSLYENDCIFDKFECCWNGSDSVVMTGSYNNFFRMFDRNTKRDITLEASRENNKPRTVLKPRKVCASGKRKKDEISVDSLDFNKKILHTAWHPKENIIAVATTNNLYIFQDKVN
For B5, the binding result in assay [3] and in assay [4] was “binds” each time.

B6: FLAG-p107 (protein, UniProt P28749 1-1068)
chain: MFEDKPHAEGAAVVAAAGEALQALCQELNLDEGSAAEALDDFTAIRGNYSLEGEVTHWLACSLYVACRKSIIPTVGKGIMEGNCVSLTRILRSAKLSLIQFFSKMKKWMDMSNLPQEFRERIERLERNFEVSTVIFKKYEPIFLDIFQNPYEEPPKLPRSRKQRRIPCSVKDLFNFCWTLFVYTKGNFRMIGDDLVNSYHLLLCCLDLIFANAIMCPNRQDLLNPSFKGLPSDFHTADFTASEEPPCIIAVLCELHDGLLVEAKGIKEHYFKPYISKLFDRKILKGECLLDLSSFTDNSKAVNKEYEEYVLTVGDFDERIFLGADAEEEIGTPRKFTRDTPLGKLTAQANVEYNLQQHFEKKRSFAPSTPLTGRRYLREKEAVITPVASATQSVSRLQSIVAGLKNAPSDQLINIFESCVRNPVENIMKILKGIGETFCQHYTQSTDEQPGSHIDFAVNRLKLAEILYYKILETVMVQETRRLHGMDMSVLLEQDIFHRSLMACCLEIVLFAYSSPRTFPWIIEVLNLQPFYFYKVIEVVIRSEEGLSRDMVKHLNSIEEQILESLAWSHDSALWEALQVSANKVPTCEEVIFPNNFETGNGGNVQGHLPLMPMSPLMHPRVKEVRTDSGSLRRDMQPLSPISVHERYSSPTAGSAKRRLFGEDPPKEMLMDKIITEGTKLKIAPSSSITAENVSILPGQTLLTMATAPVTGTTGHKVTIPLHGVANDAGEITLIPLSMNTNQESKVKSPVSLTAHSLIGASPKQTNLTKAQEVHSTGINRPKRTGSLALFYRKVYHLASVRLRDLCLKLDVSNELRRKIWTCFEFTLVHCPDLMKDRHLDQLLLCAFYIMAKVTKEERTFQEIMKSYRNQPQANSHVYRSVLLKSIPREVVAYNKNINDDFEMIDCDLEDATKTPDCSSGPVKEERGDLIKFYNTIYVGRVKSFALKYDLANQDHMMDAPPLSPFPHIKQQPGSPRRISQQHSIYISPHKNGSGLTPRSALLYKFNGSPSKSLKDINNMIRQGEQRTKKRVIAIDSDAESPAKRVCQENDDVLLKRLQDVVSERANH
Take B6: in assay [5], the binding result is given as “binds”.

Values taken from paper PMC11233601.
